Each compound was assayed on fixation de la (³H)BTCP dans le striatum de souris (assay: Inhibition of in vivo (3H)BTCP binding in mouse striatum (Example 40)).
Experimental: Exemple 40 : Etude de l'inhibition de la fixation "in vivo" de (³H)BTCP chez la souris.
Pour cette étude, on utilise des souris Swiss mâles pesant 20 à 25g. Les souris sont réparties par groupes et alimentées avec de la nourriture standard de laboratoire et de l'eau à volonté, en réalisant des cycles de lumière artificielle de 12h consécutives à partir de 7h du matin. Les expériences sont effectuées entre 10h et 18h. Les mesures de la fixation "in vivo" de la (³H)BTCP sont effectuées comme il a été décrit par Maurice et al, 1989, de la façon suivante.
On injecte aux souris par voie sous-cutanée le composé à tester dans 100µl de solution physiologique pour les composés n^o 4 et n^o 16 et dans 100µl d'un mélange 1:1 en volume de solution physiologique et de DMSO pour le composé n^o 26. 60 min après cette injection on leur injecte dans une veine de la queue (³H)BTCP à une dose de 5µCi dans 100µl d'un mélange de solution physiologique et d'éthanol à 5%. 30min après cette injection, on sacrifie les souris. Les striata de cerveaux sont rapidement disséqués et homogénéisés avec un ultra turrax (IKA Verk) réglage maximum pendant 20s dans 80 volumes d'un tampon Na₂HPO₄, HCl 50mM, pH=7,4 à 4°C. Deux aliquots de […] sont filtrées sous pression réduite sur des filtres GF/B (Whatman) prétraités par de la polyéthylène imine à 0,5% (Aldrich). On rince ensuite les filtres deux fois avec 5ml d'un tampon NaCl 50mM, tris-HCl 10mM, pH=7,4 à 4°C. La radioactivité fixée qui reste sur les filtres, et la radioactivité totale, obtenue à partir des deux aliquots de 200µl d'homogénats sont mesurées dans des flacons de 6ml contenant 3,5ml de ACS (Amersham) avec un spectrophotomètre à scintillation liquide Excel 1410 (LKB). La fixation non spécifique est définie comme la radioactivité présente dans chaque région après prétraitement des animaux avec de la BTCP (40mg/kg dans 100µl de solution saline), injectée par voie sous-cutanée, 60min avant l'injection de (³H)BTCP. Les résultats sont exprimés sous la forme des rapports radioactivité fixée / radioactivité libre (B/F) dans lesquels le taux de (³H)BTCP libre est estimé en soustrayant la radioactivité fixée de la radioactivité totale.
In the case of `c1ccc2sc(C3(N4CCCCC4)CCCCC3)cc2c1` [BTCP, (benzo(b)thiophényl-2)-1 (pipéridino -1) cyclohexane, reference compound], the “Nombre de Hill” value is reported as 1,12.
With `c1ccc2oc(C3(N4CCCCC4)CCCCC3)cc2c1` [composé n^o 4, (benzo(b)furannyl-2)-1 (pipéridino-1)-1 cyclohexane] the “Nombre de Hill” value was 1,13.
`c1ccc2cc(C3(N4CCCCC4)CCCCC3)ccc2c1` [composé n^o 16, (naphtyl-2)-1 (pipéridi-no-1)-1 cyclohexane] was tested, and the “Nombre de Hill” value was 0,84.
In the case of `OC1CCN(C2(c3cc4ccccc4s3)CCCCC2)CC1` [composé 26, (benzo(b)thiophényl-2)-1( (ol-4-pipéridino)-1)-1 cyclohexane], the “Nombre de Hill” value is reported as 0,74.
